# From article PMC7819943, “Rice protein-binding microarrays: a tool to detect cis-acting elements near promoter regions in rice”
# Sequences of proteins named here, by UniProt entry; tags and fusion partners are left off.
# UniProt Q0JBA9, entry or part of it: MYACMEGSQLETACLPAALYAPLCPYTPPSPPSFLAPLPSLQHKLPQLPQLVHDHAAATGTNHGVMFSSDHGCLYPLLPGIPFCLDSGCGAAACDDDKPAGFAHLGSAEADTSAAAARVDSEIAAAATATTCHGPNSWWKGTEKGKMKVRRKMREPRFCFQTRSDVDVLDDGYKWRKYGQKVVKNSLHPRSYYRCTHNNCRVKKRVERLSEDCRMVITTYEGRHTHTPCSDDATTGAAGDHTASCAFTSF
# The list shows a part of the results.
# Biological target: OsWRKY34 (Oryza sativa, UniProt Q0JBA9 1-250)
# Experiment: protein-binding microarray (RPBM); PBS, 2% BSA, 51.3 ng/ul salmon testes DNA, 50 uM zinc acetate, 200 nM TF, 25 C, 1 h; high values mean tight binding
# Details: protein: recombinant; tags: N-terminal polyhistidine and DsRed monomer fusion (pET32a); label: CyDye5-dUTP incorporated in the synthesized complementary strand; 3' TTTTT single-stranded linker to array surface; dsDNA, one strand shown
# Method in brief: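 A custom Agilent array was converted to double-stranded form by primer extension with Cy5-dUTP and blocked with 2% BSA. Protein at 200 nM in PBS with 2% BSA, salmon testes DNA and 50 µM zinc acetate was applied for 1 h at 25 °C, followed by washing. The proteins were polyhistidine–DsRed N-terminal fusions of transcription factors, expressed in E. coli BL21-CodonPlus and Ni–NTA-purified. The binding signal is per-feature fluorescence intensity (arbitrary units) from an Axon 4000B scanner.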
row,Sequence,binding signal
1,CCCGTCTCTCCTCCTGATCGCTCGTTGTTGTCTCTTCTCGCGGAGTCACCTAGTGCAG,9090 fluorescence intensity (a.u.)
2,CCTTTTTGTTTCTGTTTCTTCTGTTGTAAACAAACCCTTACGGAGTCACCTAGTGCAG,13100 fluorescence intensity (a.u.)
3,GTTGGTGGTGGTGGTGGTAGCTTTGGGGCGTTTGGCTCGGCGGAGTCACCTAGTGCAG,15800 fluorescence intensity (a.u.)
4,CCCGGATTTTTTTTGGATCGGACTGATTTGTTTTTTTTTTCGGAGTCACCTAGTGCAG,8860 fluorescence intensity (a.u.)
5,TGTTCTGTTCATAGTCAGTCGCGTCTTCTTGTATTGGTTTCGGAGTCACCTAGTGCAG,10000 fluorescence intensity (a.u.)
6,TGACATATTATTTCCTTTTATTTGCATAGAATTGACATTACGGAGTCACCTAGTGCAG,8380 fluorescence intensity (a.u.)
7,ATCCCCTTTCTATGTAACTGCAGGGCAATTTCGTCTGGTCCGGAGTCACCTAGTGCAG,8510 fluorescence intensity (a.u.)
8,ATTTCCACCTGCTCATCTATATCTATCTATCATCAAGCTGCGGAGTCACCTAGTGCAG,8380 fluorescence intensity (a.u.)
9,ATCACGCCAGTCACCACGCTTGGCATATGCTGGTAAATATCGGAGTCACCTAGTGCAG,8130 fluorescence intensity (a.u.)
10,GACTCTCCCCATTGTGTCACATGGGCCTTTTGCTTTGTGACGGAGTCACCTAGTGCAG,10300 fluorescence intensity (a.u.)
11,TTTGCTCAGAGAGAGGCCCAATCCGTGTCAATATTTGTCCCGGAGTCACCTAGTGCAG,8530 fluorescence intensity (a.u.)
12,CCTTCGCTCGCCACGTGGCAGCCGCTAGTCCTTATCGCCGCGGAGTCACCTAGTGCAG,10300 fluorescence intensity (a.u.)
13,CCTCGACCTCAGCAAGAACAACCTCTCCGGCGCGATCCCCCGGAGTCACCTAGTGCAG,9010 fluorescence intensity (a.u.)
14,TTGCTACTTACAAATACTACTTTTTTTCTCTTTCTTTTTTCGGAGTCACCTAGTGCAG,12400 fluorescence intensity (a.u.)
15,TTCGCCATCCGTAATTCCGGTTTCTTCTGCGCAACACCAACGGAGTCACCTAGTGCAG,8400 fluorescence intensity (a.u.)
16,AAGTCACCTCCTTTCTCTTTGCTTTTCTTCACTCCGAAATCGGAGTCACCTAGTGCAG,8240 fluorescence intensity (a.u.)
17,ATATATATATATATATATAGTCAAACATATCCCATGAATACGGAGTCACCTAGTGCAG,9320 fluorescence intensity (a.u.)
18,ATCTTTTCACTTTTCACTTTAGACTAGGTAACTTTGCCTTCGGAGTCACCTAGTGCAG,8490 fluorescence intensity (a.u.)
19,ACATTCCAGGGCTCCCATCAGTTGCCATTTTACCTAAAATCGGAGTCACCTAGTGCAG,9040 fluorescence intensity (a.u.)
20,ATTCATATAACCATGTCCTTATTATGTCATGTTTGGATTGCGGAGTCACCTAGTGCAG,8360 fluorescence intensity (a.u.)
21,GTTTTACACATGCATTCCTGTCAGAATCCTACGTTTTTTCCGGAGTCACCTAGTGCAG,8120 fluorescence intensity (a.u.)

# Fetched one by one from the list above (2):
row,Sequence,binding signal
21,GTTTTACACATGCATTCCTGTCAGAATCCTACGTTTTTTCCGGAGTCACCTAGTGCAG,8120 fluorescence intensity (a.u.)
5,TGTTCTGTTCATAGTCAGTCGCGTCTTCTTGTATTGGTTTCGGAGTCACCTAGTGCAG,10000 fluorescence intensity (a.u.)

# The list goes on:

row,Sequence,binding signal
1,AGCCACTGCATCATTTCATTTCTGCGCTCCTCATCTACTACGGAGTCACCTAGTGCAG,12700 fluorescence intensity (a.u.)
2,CACACCAACGTTTTCTTTGTGCAGACACATTCTTACATGTCGGAGTCACCTAGTGCAG,10500 fluorescence intensity (a.u.)
3,GACTTTGACCATTAAGCTTTGAAATGATGGCTTTCTTTGACGGAGTCACCTAGTGCAG,8670 fluorescence intensity (a.u.)
4,CGCCGAGGGGAGGGGAGGGGAGGTTGCCATTGTTGTCCATCGGAGTCACCTAGTGCAG,22000 fluorescence intensity (a.u.)
5,AATGGATCTGCCACTGCCAACCCAGTATCCCATAATTCCTCGGAGTCACCTAGTGCAG,10400 fluorescence intensity (a.u.)
6,AGGCAATATTTGGAAAATCCTATGCTGGTTCTGTTGTTGTCGGAGTCACCTAGTGCAG,8410 fluorescence intensity (a.u.)
7,AACATATCCACTGGTATCCATCCACCTGCCCCACGGTTTCCGGAGTCACCTAGTGCAG,9520 fluorescence intensity (a.u.)
8,TTTTCCGCCTCGTCTTTTCGCTTATGCTTATATTTATCAGCGGAGTCACCTAGTGCAG,12100 fluorescence intensity (a.u.)
9,TCGGGGTTGGGCGATATACCGAAATTTCGGTCCAAAATTTCGGAGTCACCTAGTGCAG,13300 fluorescence intensity (a.u.)
10,TCCCGTCATTCCACGCGAGCCCGAGTTGCACGGCACCACCCGGAGTCACCTAGTGCAG,8850 fluorescence intensity (a.u.)
11,TTTCTTCCACGCCTCTTGGGTCGATGATTTTTTCCCGGACCGGAGTCACCTAGTGCAG,10500 fluorescence intensity (a.u.)
12,AGGTCTGGCCATTCATCCATTTTGTTTTCTGGCGAGCCAGCGGAGTCACCTAGTGCAG,8920 fluorescence intensity (a.u.)
13,TCCGACCTTTGCATCGTGCGAGCCTCAAACCCGCGAACCCCGGAGTCACCTAGTGCAG,9300 fluorescence intensity (a.u.)
14,TACGAGATTCTGTATGTTGTATATCCAGGTGTGTATTCTTCGGAGTCACCTAGTGCAG,8610 fluorescence intensity (a.u.)
15,GCAACCTCTACCTCAATGTGTCGTGTCACACCGGAGCTCTCGGAGTCACCTAGTGCAG,8640 fluorescence intensity (a.u.)
16,CCTGTCCATGATCCATCCATCCATTGCATGTACTACACCCCGGAGTCACCTAGTGCAG,9020 fluorescence intensity (a.u.)
17,ATTTTTAACAAGTGTTTTCTCTCTGACAAGCCAGCTGCACCGGAGTCACCTAGTGCAG,8370 fluorescence intensity (a.u.)
18,GTTCTAGTGTTCTGTTGAAATTACTCTCTCTGTCCCAAAACGGAGTCACCTAGTGCAG,12700 fluorescence intensity (a.u.)
19,CATTGATTTTTTTTCTGTTTTCATGATCAATTTTTTTTCTCGGAGTCACCTAGTGCAG,11100 fluorescence intensity (a.u.)
20,TTTTTTAACTTCTTCTACATGTTTTTTTAATAATCGTGTTCGGAGTCACCTAGTGCAG,8710 fluorescence intensity (a.u.)
21,ACGTTTTTCCTATTCCTACGTTTTCTCAATCCTGCGATTCCGGAGTCACCTAGTGCAG,9020 fluorescence intensity (a.u.)
